In the supplement of paper PMC12823440, “Inhibitors supercharge kinase turnover through native proteolytic circuits” (Nature, 2025):
Structures can show the parent of a compound that is named as a salt. Some of the results follow. Hit calls seldom repeat between salt and free forms of one compound.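 In K562 cells expressing nanoluciferase-fused kinases, luminescence was recorded at 4 h intervals between 2 and 18 h, normalized as percent of control with DMSO at 100% and a positive control at 0%. A significant (2 sigma) signal drop marks a time point as decreased. The authors' rule for a hit is not shown and takes in more than the number of time points.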

The chains behind the UniProt entries cited, without tags or fusion partners. Where a name states a change or a piece, a line headed by the entry shows the natural chain unless it says otherwise.
UniProt P07949, whole entry, looked up: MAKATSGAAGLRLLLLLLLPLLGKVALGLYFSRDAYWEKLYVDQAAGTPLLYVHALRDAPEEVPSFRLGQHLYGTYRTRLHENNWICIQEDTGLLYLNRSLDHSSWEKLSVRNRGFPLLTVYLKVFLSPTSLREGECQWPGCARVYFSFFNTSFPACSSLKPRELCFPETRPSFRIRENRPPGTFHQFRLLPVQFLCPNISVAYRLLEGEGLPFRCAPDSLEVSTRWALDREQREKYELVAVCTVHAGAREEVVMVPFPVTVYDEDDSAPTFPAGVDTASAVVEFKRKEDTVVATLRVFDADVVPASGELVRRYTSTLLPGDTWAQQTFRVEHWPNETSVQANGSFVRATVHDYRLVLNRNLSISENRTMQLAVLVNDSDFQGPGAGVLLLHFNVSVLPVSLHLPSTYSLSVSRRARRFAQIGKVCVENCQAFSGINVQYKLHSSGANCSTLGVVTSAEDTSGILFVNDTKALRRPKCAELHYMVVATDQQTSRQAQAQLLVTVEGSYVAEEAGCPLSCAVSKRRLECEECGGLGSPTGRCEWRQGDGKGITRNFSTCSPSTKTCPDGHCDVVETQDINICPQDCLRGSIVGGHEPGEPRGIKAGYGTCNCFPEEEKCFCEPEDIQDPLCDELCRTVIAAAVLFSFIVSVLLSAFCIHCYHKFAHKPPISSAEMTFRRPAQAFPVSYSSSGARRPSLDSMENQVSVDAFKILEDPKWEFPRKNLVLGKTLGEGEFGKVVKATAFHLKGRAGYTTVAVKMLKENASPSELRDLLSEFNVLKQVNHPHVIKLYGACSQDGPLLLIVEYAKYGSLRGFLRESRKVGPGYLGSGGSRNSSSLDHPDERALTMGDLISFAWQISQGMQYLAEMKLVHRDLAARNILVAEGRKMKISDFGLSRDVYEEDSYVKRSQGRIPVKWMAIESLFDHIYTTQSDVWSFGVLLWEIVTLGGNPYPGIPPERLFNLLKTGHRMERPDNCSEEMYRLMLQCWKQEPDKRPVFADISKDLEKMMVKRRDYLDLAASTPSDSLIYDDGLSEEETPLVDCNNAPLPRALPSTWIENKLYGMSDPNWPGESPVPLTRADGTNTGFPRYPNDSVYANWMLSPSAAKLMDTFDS
UniProt P07949, whole entry M918T, looked up: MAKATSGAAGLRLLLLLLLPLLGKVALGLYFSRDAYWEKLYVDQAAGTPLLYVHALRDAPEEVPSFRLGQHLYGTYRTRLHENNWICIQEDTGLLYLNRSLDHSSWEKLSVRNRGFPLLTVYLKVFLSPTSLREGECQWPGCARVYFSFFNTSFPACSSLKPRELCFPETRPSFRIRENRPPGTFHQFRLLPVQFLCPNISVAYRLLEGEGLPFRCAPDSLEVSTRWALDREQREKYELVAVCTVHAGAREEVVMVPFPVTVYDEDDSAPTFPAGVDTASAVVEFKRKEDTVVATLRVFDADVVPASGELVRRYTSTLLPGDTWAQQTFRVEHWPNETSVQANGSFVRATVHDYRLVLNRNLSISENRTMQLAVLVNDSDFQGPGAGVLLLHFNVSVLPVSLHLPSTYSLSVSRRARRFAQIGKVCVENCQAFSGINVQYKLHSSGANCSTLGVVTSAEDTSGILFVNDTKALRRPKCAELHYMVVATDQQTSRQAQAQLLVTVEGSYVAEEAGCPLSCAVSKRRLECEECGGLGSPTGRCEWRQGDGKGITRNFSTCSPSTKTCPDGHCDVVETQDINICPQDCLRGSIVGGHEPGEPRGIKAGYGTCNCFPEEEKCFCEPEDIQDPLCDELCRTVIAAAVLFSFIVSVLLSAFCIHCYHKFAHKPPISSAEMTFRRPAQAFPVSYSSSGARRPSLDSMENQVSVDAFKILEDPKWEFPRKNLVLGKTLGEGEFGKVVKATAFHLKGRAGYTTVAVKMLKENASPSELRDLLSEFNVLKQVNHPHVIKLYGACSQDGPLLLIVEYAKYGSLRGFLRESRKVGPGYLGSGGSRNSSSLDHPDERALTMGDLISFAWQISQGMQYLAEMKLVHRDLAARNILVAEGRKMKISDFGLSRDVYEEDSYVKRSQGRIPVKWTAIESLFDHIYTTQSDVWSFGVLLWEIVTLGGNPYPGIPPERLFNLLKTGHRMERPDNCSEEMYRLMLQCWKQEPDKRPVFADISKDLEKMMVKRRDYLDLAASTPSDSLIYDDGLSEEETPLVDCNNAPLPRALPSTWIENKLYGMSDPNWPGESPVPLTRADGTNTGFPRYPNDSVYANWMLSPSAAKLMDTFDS
UniProt Q13546: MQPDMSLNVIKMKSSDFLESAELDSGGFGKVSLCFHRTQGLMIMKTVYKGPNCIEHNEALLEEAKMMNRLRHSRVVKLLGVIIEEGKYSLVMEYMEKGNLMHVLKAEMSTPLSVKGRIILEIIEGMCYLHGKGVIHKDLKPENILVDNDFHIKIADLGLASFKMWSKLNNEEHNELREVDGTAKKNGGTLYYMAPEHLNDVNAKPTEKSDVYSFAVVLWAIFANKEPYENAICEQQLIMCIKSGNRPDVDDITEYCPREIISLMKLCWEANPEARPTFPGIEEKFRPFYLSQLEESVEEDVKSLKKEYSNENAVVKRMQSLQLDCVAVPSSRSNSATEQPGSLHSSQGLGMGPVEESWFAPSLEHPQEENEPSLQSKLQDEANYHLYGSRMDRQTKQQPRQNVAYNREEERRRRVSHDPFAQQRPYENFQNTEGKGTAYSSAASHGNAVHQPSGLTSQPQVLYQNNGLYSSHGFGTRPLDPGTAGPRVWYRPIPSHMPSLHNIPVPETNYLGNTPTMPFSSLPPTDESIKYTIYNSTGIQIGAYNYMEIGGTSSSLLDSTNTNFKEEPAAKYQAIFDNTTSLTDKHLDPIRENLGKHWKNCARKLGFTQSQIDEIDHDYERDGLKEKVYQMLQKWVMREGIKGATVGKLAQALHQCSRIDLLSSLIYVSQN
UniProt Q15418, whole entry: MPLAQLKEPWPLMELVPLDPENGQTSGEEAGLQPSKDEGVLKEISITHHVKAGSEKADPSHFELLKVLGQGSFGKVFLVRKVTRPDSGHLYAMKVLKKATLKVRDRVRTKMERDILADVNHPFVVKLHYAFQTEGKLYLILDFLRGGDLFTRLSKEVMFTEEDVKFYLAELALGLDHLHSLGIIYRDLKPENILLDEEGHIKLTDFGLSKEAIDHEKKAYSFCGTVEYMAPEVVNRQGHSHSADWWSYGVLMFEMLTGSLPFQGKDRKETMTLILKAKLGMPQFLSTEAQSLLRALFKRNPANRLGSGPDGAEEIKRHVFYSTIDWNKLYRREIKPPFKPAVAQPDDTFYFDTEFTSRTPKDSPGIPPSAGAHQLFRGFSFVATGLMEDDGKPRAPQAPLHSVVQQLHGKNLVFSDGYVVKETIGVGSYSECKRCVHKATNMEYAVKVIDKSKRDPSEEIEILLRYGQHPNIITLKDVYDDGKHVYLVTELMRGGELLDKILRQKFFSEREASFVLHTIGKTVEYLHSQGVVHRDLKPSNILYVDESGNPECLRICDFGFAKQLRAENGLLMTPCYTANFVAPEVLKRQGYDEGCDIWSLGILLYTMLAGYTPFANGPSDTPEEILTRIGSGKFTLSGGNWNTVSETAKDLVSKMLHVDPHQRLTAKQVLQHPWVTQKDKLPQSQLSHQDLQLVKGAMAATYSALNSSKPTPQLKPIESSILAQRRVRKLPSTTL
UniProt Q15208: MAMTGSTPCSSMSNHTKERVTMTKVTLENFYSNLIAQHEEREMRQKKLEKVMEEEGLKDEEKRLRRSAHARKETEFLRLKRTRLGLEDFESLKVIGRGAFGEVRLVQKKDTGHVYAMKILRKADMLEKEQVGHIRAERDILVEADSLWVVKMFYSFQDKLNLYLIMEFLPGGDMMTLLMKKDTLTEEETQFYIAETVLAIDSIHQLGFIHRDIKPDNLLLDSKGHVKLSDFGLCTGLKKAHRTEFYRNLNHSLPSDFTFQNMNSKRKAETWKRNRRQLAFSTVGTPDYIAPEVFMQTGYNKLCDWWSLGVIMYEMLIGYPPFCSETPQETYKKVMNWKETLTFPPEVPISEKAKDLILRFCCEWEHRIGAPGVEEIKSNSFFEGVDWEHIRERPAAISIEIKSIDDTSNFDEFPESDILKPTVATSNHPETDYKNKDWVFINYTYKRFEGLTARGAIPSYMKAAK
UniProt P42680: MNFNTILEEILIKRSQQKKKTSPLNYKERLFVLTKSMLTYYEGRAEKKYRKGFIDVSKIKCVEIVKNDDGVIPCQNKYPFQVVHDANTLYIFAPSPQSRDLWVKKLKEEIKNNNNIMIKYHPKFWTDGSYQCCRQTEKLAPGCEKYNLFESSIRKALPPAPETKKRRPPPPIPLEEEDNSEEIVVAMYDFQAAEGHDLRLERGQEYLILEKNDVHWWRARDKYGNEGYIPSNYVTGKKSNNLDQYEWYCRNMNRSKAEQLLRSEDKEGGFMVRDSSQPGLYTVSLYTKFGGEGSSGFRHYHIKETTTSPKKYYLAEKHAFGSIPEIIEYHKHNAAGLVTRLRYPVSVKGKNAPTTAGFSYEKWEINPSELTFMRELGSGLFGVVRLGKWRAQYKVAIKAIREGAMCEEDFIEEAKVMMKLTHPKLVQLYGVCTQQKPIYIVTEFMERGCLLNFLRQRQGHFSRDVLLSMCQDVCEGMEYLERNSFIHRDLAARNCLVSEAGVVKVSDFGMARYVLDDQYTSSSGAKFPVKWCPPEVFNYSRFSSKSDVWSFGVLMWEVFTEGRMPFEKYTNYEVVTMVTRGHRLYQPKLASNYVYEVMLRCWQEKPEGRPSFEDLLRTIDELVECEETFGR
UniProt Q6PHR2: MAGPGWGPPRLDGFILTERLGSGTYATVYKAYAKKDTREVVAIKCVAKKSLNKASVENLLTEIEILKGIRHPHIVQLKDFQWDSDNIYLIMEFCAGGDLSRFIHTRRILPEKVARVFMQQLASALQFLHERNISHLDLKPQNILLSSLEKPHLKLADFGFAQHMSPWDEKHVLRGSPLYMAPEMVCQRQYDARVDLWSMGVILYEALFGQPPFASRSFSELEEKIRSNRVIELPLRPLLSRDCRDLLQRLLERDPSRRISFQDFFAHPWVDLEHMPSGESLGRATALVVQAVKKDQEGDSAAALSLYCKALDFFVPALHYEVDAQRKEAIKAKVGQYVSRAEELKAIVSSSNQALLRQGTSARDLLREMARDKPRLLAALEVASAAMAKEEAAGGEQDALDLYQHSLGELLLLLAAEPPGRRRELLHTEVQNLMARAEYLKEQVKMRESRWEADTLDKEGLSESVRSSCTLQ
UniProt Q9NYA1, whole entry: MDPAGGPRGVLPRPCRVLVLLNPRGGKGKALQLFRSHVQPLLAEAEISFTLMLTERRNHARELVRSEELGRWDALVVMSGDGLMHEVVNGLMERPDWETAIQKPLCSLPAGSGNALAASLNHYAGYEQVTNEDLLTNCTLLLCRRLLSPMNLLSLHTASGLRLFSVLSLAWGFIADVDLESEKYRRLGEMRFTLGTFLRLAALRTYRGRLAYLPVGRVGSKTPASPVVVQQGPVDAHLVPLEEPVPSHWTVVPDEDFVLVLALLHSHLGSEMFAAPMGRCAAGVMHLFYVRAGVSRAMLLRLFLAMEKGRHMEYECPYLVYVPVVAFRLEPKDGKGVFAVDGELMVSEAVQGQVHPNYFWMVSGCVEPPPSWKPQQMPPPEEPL

Columns and labels:
Assay in all cases: number of time points (of 5) at which kinase-Nluc abundance scored as decreased, DMSO-normalised (count); higher = more persistent destabilization
Conditions in all cases: K562; 2-18 h
PRKCA = PRKCA (UniProt P17252)
PTK2 = PTK2 (UniProt Q05397)
PTK2B = PTK2B (UniProt Q14289)
RAF1 = RAF1 (UniProt P04049)
[1] = molecular target: RAF1_S257L (clone: RAF1_mut) (UniProt P04049)
RET = RET (UniProt P07949)
[2] = molecular target: RET_M918T (clone: RET_mut) (UniProt P07949)
RIOK1 = RIOK1 (UniProt Q9BRS2)
RIPK1 = RIPK1 (UniProt Q13546)
RIPK2 = RIPK2 (UniProt O43353)
ROR2 = ROR2 (UniProt Q01974)
RPS6KA1 = RPS6KA1 (UniProt Q15418)
SRC = SRC (UniProt P12931)
STK24 = STK24 (UniProt Q9Y6E0)
STK38 = STK38 (UniProt Q15208)
SYK = SYK (UniProt P43405)
TEC = TEC (UniProt P42680)
TYK2 = TYK2 (UniProt P29597)
ULK3 = ULK3 (UniProt Q6PHR2)
SPHK1 = SPHK1 (UniProt Q9NYA1)

Row | Structure (SMILES) | number of time points (PRKCA) | number of time points (PTK2) | number of time points (PTK2B) | number of time points (RAF1) | number of time points [1] | number of time points (RET) | number of time points [2] | number of time points (RIOK1) | number of time points (RIPK1) | number of time points (RIPK2) | number of time points (ROR2) | number of time points (RPS6KA1) | number of time points (SRC) | number of time points (STK24) | number of time points (STK38) | number of time points (SYK) | number of time points (TEC) | number of time points (TYK2) | number of time points (ULK3) | number of time points (SPHK1)
1 | Cc1cc(CS(=O)(=O)c2ccccc2)cc(OCc2ccc(CN3CCC[C@@H]3CO)cc2)c1 [PF-543 (Citrate)] (10 µM) | 0 | 0 | 0 | 0 | 0 | 0 | 0 | 0 | 0 | 0 | 0 | 0 | 0 | 0 | 0 | 0 | 0 | 0 | 0 | –
2 | CC(C)(C#N)c1ccc(N2C(=O)OCc3cnc4ccc(-c5cnc6ccccc6c5)cc4c32)cc1 (2.5 µM) | 0 | 0 | 0 | 0 | 0 | 0 | 0 | 0 | 0 | 0 | 0 | 0 | 0 | 0 | 0 | 0 | 0 | 0 | 0 | 0
3 | COc1nccc(-c2c(-c3ccc(F)cc3)ncn2C2CCC(O)CC2)n1 (stereo not given) (10 µM) | 0 | 0 | – | 0 | 0 | – | – | 0 | 0 | 0 | 0 | 0 | 0 | 0 | 0 | 0 | 0 | 0 | 0 | 0
4 | CN1CCN(c2ccc(C(=O)Nc3n[nH]c4ccc(Cc5cc(F)cc(F)c5)cc34)c(NC3CCOCC3)c2)CC1 [Entrectinib] (2.5 µM) | 0 | 0 | 0 | 0 | 0 | 0 | 0 | 0 | 0 | 0 | 0 | 0 | 0 | 0 | 0 | 0 | 0 | 0 | 1 | 0
5 | CN(C)C(=O)/C(C#N)=C/c1ccc(-c2nc3cnc4[nH]ccc4c3n2C2CCCCC2)o1 (10 µM) | 0 | 0 | – | 0 | 0 | 0 | 0 | 0 | 0 | 0 | 0 | 0 | 0 | 0 | 0 | 0 | 0 | 0 | 0 | 0
6 | CCOc1cc2ncc(-c3cc(N)nc(F)c3)n2cc1S(=O)(=O)C(C)(C)C (10 µM) | 0 | 0 | 0 | 0 | 0 | 0 | 0 | 0 | 0 | – | 0 | 0 | 0 | 0 | 0 | 0 | 0 | 0 | 0 | 0
7 | Cc1cc(C(=O)Nc2cccc(C(=O)Nc3cccc(C(F)(F)F)c3)c2)on1 (10 µM) | 0 | 0 | 0 | 0 | 0 | 0 | 0 | 0 | 0 | 0 | 0 | 0 | 0 | 0 | 0 | 0 | 0 | 0 | 0 | 0
8 | Cc1ccc(NC(=O)c2cccc(N(C)C)c2)cc1NC(=O)c1ccc(O)cc1 (10 µM) | 0 | 0 | 0 | 0 | 0 | 0 | 0 | 0 | 0 | 0 | 0 | 0 | 0 | 0 | 0 | 0 | 0 | 0 | 0 | 0
9 | CC(C)(C)c1cc(NC(=O)Nc2ccc(-c3cn4c(n3)sc3cc(OCCN5CCOCC5)ccc34)cc2)no1 [Quizartinib] (10 µM) | 0 | 0 | 0 | 3 | 0 | 4 | 3 | 0 | – | 0 | 0 | 0 | 0 | 0 | 0 | 0 | 0 | 0 | 0 | 0
10 | C=CC(=O)N1CCN(CCCn2c(=O)c(-c3c(Cl)c(OC)cc(OC)c3Cl)cc3cnc(NC)nc32)CC1 (10 µM) | 0 | 0 | 0 | 0 | 0 | 0 | 0 | 0 | 0 | 0 | 0 | 0 | 0 | 0 | 0 | 0 | 0 | 0 | 0 | 0
11 | COc1cc(Nc2ncc3c(n2)-c2ccc(Cl)cc2C(c2c(F)cccc2OC)=NC3)ccc1C(=O)O [Alisertib] (2.5 µM) | 0 | 0 | 0 | 0 | 0 | – | – | 0 | 0 | 0 | 0 | 0 | 0 | 0 | 0 | – | 0 | 0 | 0 | 0
12 | O=C1NC(=NCc2cccs2)S/C1=C\c1ccc2ncccc2c1 (10 µM) | 0 | 0 | 0 | 0 | 0 | 0 | 0 | 0 | 0 | 0 | 0 | 0 | 0 | 0 | 0 | 0 | 0 | 0 | 0 | 0
13 | Cc1ccc(S(=O)(=O)Nc2nc3ccccc3nc2Nc2ccc3nsnc3c2)cc1 [Pilaralisib analogue] (10 µM) | 1 | 5 | 1 | 0 | 0 | 0 | 0 | 0 | 0 | 0 | 1 | 1 | 0 | – | 0 | 0 | 1 | 0 | 5 | 0
14 | COCCOc1cc2nccc(Nc3n[nH]c(C)c3C)c2cc1S(=O)(=O)C(C)(C)C [RIP2 kinase inhibitor 2] (2.5 µM) | 0 | 0 | 0 | 0 | 0 | 0 | 0 | 0 | 0 | – | 0 | 0 | 0 | 0 | 0 | 0 | 0 | 0 | 0 | 0
15 | COc1cc(N2CCC(N)CC2)ccc1Nc1ncc(Cl)c(-c2c[nH]c3ccccc23)n1 (2.5 µM) | 0 | 0 | 0 | 0 | 0 | 0 | 0 | 0 | 0 | 0 | 0 | 0 | 0 | 0 | 0 | 0 | 0 | 0 | 0 | 0
16 | CN(c1ncccc1CNc1nc(Nc2ccc3c(c2)CC(=O)N3)ncc1C(F)(F)F)S(C)(=O)=O (2.5 µM) | 0 | – | – | 0 | 2 | 0 | 1 | 2 | 2 | 0 | 0 | 0 | 0 | 0 | 0 | 0 | 0 | 0 | 0 | 0
17 | C=CC(=O)N1C[C@H](Nc2ncnc3[nH]ccc23)CC[C@@H]1C [Ritlecitinib] (10 µM) | 0 | 0 | 0 | 0 | 0 | 0 | 0 | 0 | 0 | 0 | 0 | 0 | 0 | 3 | 0 | 0 | 0 | 0 | 0 | 0
18 | C=CC(=O)Nc1ccc2ncnc(Nc3cccc(Br)c3)c2c1 (10 µM) | 0 | 0 | 0 | 3 | 0 | 0 | 0 | 0 | 3 | 0 | 0 | 0 | 0 | 0 | 0 | 0 | 3 | 0 | 2 | 0
19 | Cn1c(=O)c(Oc2ccc(F)cc2F)cc2cnc(NC3CCOCC3)nc21 [R1487 (Hydrochloride)] (10 µM) | 0 | 0 | – | 0 | 0 | 0 | 0 | 0 | 0 | 0 | 0 | 0 | 0 | 0 | 0 | 0 | 0 | 0 | 0 | 0

Part of the list above in order of SMILES length, low to high.
Row | Structure (SMILES) | number of time points (PRKCA) | number of time points (PTK2) | number of time points (PTK2B) | number of time points (RAF1) | number of time points [1] | number of time points (RET) | number of time points [2] | number of time points (RIOK1) | number of time points (RIPK1) | number of time points (RIPK2) | number of time points (ROR2) | number of time points (RPS6KA1) | number of time points (SRC) | number of time points (STK24) | number of time points (STK38) | number of time points (SYK) | number of time points (TEC) | number of time points (TYK2) | number of time points (ULK3) | number of time points (SPHK1)
12 | O=C1NC(=NCc2cccs2)S/C1=C\c1ccc2ncccc2c1 (10 µM) | 0 | 0 | 0 | 0 | 0 | 0 | 0 | 0 | 0 | 0 | 0 | 0 | 0 | 0 | 0 | 0 | 0 | 0 | 0 | 0
17 | C=CC(=O)N1C[C@H](Nc2ncnc3[nH]ccc23)CC[C@@H]1C [Ritlecitinib] (10 µM) | 0 | 0 | 0 | 0 | 0 | 0 | 0 | 0 | 0 | 0 | 0 | 0 | 0 | 3 | 0 | 0 | 0 | 0 | 0 | 0
11 | COc1cc(Nc2ncc3c(n2)-c2ccc(Cl)cc2C(c2c(F)cccc2OC)=NC3)ccc1C(=O)O [Alisertib] (2.5 µM) | 0 | 0 | 0 | 0 | 0 | – | – | 0 | 0 | 0 | 0 | 0 | 0 | 0 | 0 | – | 0 | 0 | 0 | 0
